# The list shows a part of the results.
# Tests used:
# Experiment in all cases: glycan array binding signal (z-score within array); higher = stronger binding
# Conditions in all cases: glycan notation: IUPAC condensed, linker removed
# [1] = target: Gal(b1-3)GlcNAc(b1-2)Man(a1-3)[Gal(b1-3)GlcNAc(b1-2)Man(a1-6)]Man(b1-4)GlcNAc(b1-4)[Fuc(a1-6)]GlcNAc
# Summary of the method: (§1)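 Glycan array data came from 3228 arrays in the Consortium for Functional Glycomics database, and only arrays with an available protein sequence were kept. Glycan names were put into IUPAC-condensed notation, and columns mapping to the same glycan were averaged. The binding signal is a within-array Z-score, averaged across arrays of one protein sequence run at different concentrations or buffers and across linkers. A negative Z-score can be read as non-binding.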
# [2] = target: Gal(b1-3)GlcNAc(b1-2)Man(a1-3)[GlcNAc(b1-4)][Gal(b1-3)GlcNAc(b1-2)Man(a1-6)]Man(b1-4)GlcNAc(b1-4)GlcNAc
# Summary of the method: as §1
# [3] = target: Gal(b1-3)GlcNAc(b1-2)[Gal(b1-3)GlcNAc(b1-6)]Man(a1-6)[Gal(b1-3)GlcNAc(b1-2)Man(a1-3)]Man(b1-4)GlcNAc(b1-4)GlcNAc
# Summary of the method: as §1
# [4] = target: Gal(b1-3)GlcNAc(b1-3)Gal(b1-3)GlcNAc
# Summary of the method: as §1
# [5] = target: Gal(b1-3)GlcNAc(b1-3)Gal(b1-4)Glc
# Summary of the method: as §1
# [6] = target: Gal(b1-3)GlcNAc(b1-3)Gal(b1-4)GlcNAc
# Summary of the method: as §1
# [7] = target: Gal(b1-3)GlcNAc(b1-3)Gal(b1-4)GlcNAc(b1-2)Man(a1-3)[Gal(b1-3)GlcNAc(b1-3)Gal(b1-4)GlcNAc(b1-2)Man(a1-6)]Man(b1-4)GlcNAc(b1-4)GlcNAc
# Summary of the method: as §1
# [8] = target: Gal(b1-3)GlcNAc(b1-3)Gal(b1-4)GlcNAc(b1-2)[Gal(b1-3)GlcNAc(b1-3)Gal(b1-4)GlcNAc(b1-6)]Man(a1-6)[Gal(b1-3)GlcNAc(b1-3)Gal(b1-4)GlcNAc(b1-2)Man(a1-3)]Man(b1-4)GlcNAc(b1-4)[Fuc(a1-6)]GlcNAc
# Summary of the method: as §1
# [9] = target: Gal(b1-3)GlcNAc(b1-3)Gal(b1-4)GlcNAc(b1-3)Gal(b1-4)GlcNAc(b1-2)[Gal(b1-3)GlcNAc(b1-3)Gal(b1-4)GlcNAc(b1-3)Gal(b1-4)GlcNAc(b1-6)]Man(a1-6)[Gal(b1-3)GlcNAc(b1-3)Gal(b1-4)GlcNAc(b1-3)Gal(b1-4)GlcNAc(b1-2)Man(a1-3)]Man(b1-4)GlcNAc(b1-4)[Fuc(a1-6)]GlcNAc
# Summary of the method: as §1
# [10] = target: Gal(b1-3)GlcNAc(b1-3)Gal(b1-4)GlcNAc(b1-6)[Gal(b1-3)GlcNAc(b1-3)]Gal(b1-4)Glc
# Summary of the method: as §1
# [11] = target: Gal(b1-3)GlcNAc(b1-3)Gal(b1-4)[Fuc(a1-3)]GlcNAc
# Summary of the method: as §1
# [12] = target: Gal(b1-3)GlcNAc(b1-3)Gal(b1-4)[Fuc(a1-3)]GlcNAc(b1-6)[Gal(b1-3)GlcNAc(b1-3)]Gal(b1-4)Glc
# Summary of the method: as §1
# [13] = target: Gal(b1-3)GlcNAc(b1-3)GalNAc
# Summary of the method: as §1
# [14] = target: Gal(b1-3)GlcNAc(b1-6)Gal(b1-4)GlcNAc
# Summary of the method: as §1
# [15] = target: Gal(b1-3)GlcNAc(b1-6)GalNAc
# Summary of the method: as §1
# [16] = target: Gal(b1-3)GlcNAc(b1-6)[Gal(b1-3)]GalNAc
# Summary of the method: as §1
# [17] = target: Gal(b1-3)GlcNAc6S
# Summary of the method: as §1
# [18] = target: Gal(b1-3)[Fuc(a1-4)]GlcNAc
# Summary of the method: as §1
# [19] = target: Gal(b1-3)[Fuc(a1-4)]GlcNAc(b1-2)Man
# Summary of the method: as §1
# [20] = target: Gal(b1-3)[Fuc(a1-4)]GlcNAc(b1-2)Man(a1-3)[Gal(b1-3)[Fuc(a1-4)]GlcNAc(b1-2)Man(a1-6)]Man(b1-4)GlcNAc(b1-4)[Fuc(a1-6)]GlcNAc
# Summary of the method: as §1
# [21] = target: Gal(b1-3)[Fuc(a1-4)]GlcNAc(b1-3)Gal(b1-3)[Fuc(a1-4)]GlcNAc
# Summary of the method: as §1
# [22] = target: Gal(b1-3)[Fuc(a1-4)]GlcNAc(b1-3)Gal(b1-4)[Fuc(a1-3)]GlcNAc
# Summary of the method: as §1
# [23] = target: Gal(b1-3)[Fuc(a1-4)]GlcNAc(b1-6)GalNAc
# Summary of the method: as §1
# [24] = target: Gal(b1-3)[GlcNAc(b1-6)]GalNAc
# Summary of the method: as §1
# [25] = target: Gal(b1-3)[Neu5Ac(a2-6)]GalNAc
# Summary of the method: as §1
# [26] = target: Gal(b1-3)[Neu5Ac(a2-6)]GlcNAc(b1-4)Gal(b1-4)Glc
# Summary of the method: as §1
# [27] = target: Gal(b1-3)[Neu5Ac(b2-6)]GalNAc
# Summary of the method: as §1
# [28] = target: Gal(b1-4)Gal
# Summary of the method: as §1
# [29] = target: Gal(b1-4)GalNAc(a1-3)[Fuc(a1-2)]Gal(b1-4)GlcNAc
# Summary of the method: as §1
# [30] = target: Gal(b1-4)GalNAc(b1-3)[Fuc(a1-2)]Gal(b1-4)GlcNAc
# Summary of the method: as §1
# [31] = target: Gal(b1-4)Glc
# Summary of the method: as §1
# [32] = target: Gal(b1-4)Glc6S
# Summary of the method: as §1
# [33] = target: Gal(b1-4)GlcNAc
# Summary of the method: as §1
# [34] = target: Gal(b1-4)GlcNAc(a1-6)Gal(b1-4)GlcNAc
# Summary of the method: as §1
# [35] = target: Gal(b1-4)GlcNAc(b1-2)Man
# Summary of the method: as §1
# [36] = target: Gal(b1-4)GlcNAc(b1-2)Man(a1-3)Man(b1-4)GlcNAc(b1-4)GlcNAc
# Summary of the method: as §1
# [37] = target: Gal(b1-4)GlcNAc(b1-2)Man(a1-3)[Gal(b1-4)GlcNAc(b1-2)Man(a1-6)]Man(b1-4)GlcNAc(b1-4)GlcNAc
# Summary of the method: as §1
# [38] = target: Gal(b1-4)GlcNAc(b1-2)Man(a1-3)[Gal(b1-4)GlcNAc(b1-2)Man(a1-6)]Man(b1-4)GlcNAc(b1-4)[Fuc(a1-6)]GlcNAc
# Summary of the method: as §1
# [39] = target: Gal(b1-4)GlcNAc(b1-2)Man(a1-3)[Gal(b1-4)GlcNAc(b1-2)Man(a1-6)][Gal(b1-4)GlcNAc(b1-4)]Man(b1-4)GlcNAc(b1-4)[Fuc(a1-6)]GlcNAc
# Summary of the method: as §1
# [40] = target: Gal(b1-4)GlcNAc(b1-2)Man(a1-3)[Gal(b1-4)GlcNAc(b1-2)Man(a1-6)][GlcNAc(b1-4)]Man(b1-4)GlcNAc(b1-4)[Fuc(a1-6)]GlcNAc
# Summary of the method: as §1
# [41] = target: Gal(b1-4)GlcNAc(b1-2)Man(a1-3)[GlcNAc(b1-2)Man(a1-6)]Man(b1-4)GlcNAc(b1-4)GlcNAc
# Summary of the method: as §1
# [42] = target: Gal(b1-4)GlcNAc(b1-2)Man(a1-3)[GlcNAc(b1-4)][Gal(b1-4)GlcNAc(b1-2)Man(a1-6)]Man(b1-4)GlcNAc(b1-4)GlcNAc
# Summary of the method: as §1
# [43] = target: Gal(b1-4)GlcNAc(b1-2)Man(a1-3)[Man(a1-6)]Man(b1-4)GlcNAc(b1-4)GlcNAc
# Summary of the method: as §1
# [44] = target: Gal(b1-4)GlcNAc(b1-2)Man(a1-6)Man(b1-4)GlcNAc(b1-4)GlcNAc
# Summary of the method: as §1
# [45] = target: Gal(b1-4)GlcNAc(b1-2)Man(a1-6)[GlcNAc(b1-2)Man(a1-3)]Man(b1-4)GlcNAc(b1-4)GlcNAc
# Summary of the method: as §1
binder,measurement,setting,value
CM2 (Cordyceps militaris) (protein) MEIAEQNVGKSCAIVNLIPPKEGSNIWTAKQVTIARNLPPNRGTGRHQIDWSFGPVKVTGYVDTTNWEIGVTVSIMGIDLGTVYGNLRDGVVLNVDLFLAKGQVRFYLKNGNEVWVHLSVEIRFDGKFEGDYKIITV,glycan array binding signal (z-score),[1],-0.624
same,glycan array binding signal (z-score),[2],-0.071
same,glycan array binding signal (z-score),[3],0.007
same,glycan array binding signal (z-score),[4],-0.396
same,glycan array binding signal (z-score),[5],0.82
same,glycan array binding signal (z-score),[6],1.1
same,glycan array binding signal (z-score),[7],-0.227
same,glycan array binding signal (z-score),[8],0.677
same,glycan array binding signal (z-score),[9],-0.249
same,glycan array binding signal (z-score),[10],0.866
same,glycan array binding signal (z-score),[11],-0.064
same,glycan array binding signal (z-score),[12],1.15
same,glycan array binding signal (z-score),[13],0.628
same,glycan array binding signal (z-score),[14],0.36
same,glycan array binding signal (z-score),[15],0.957
same,glycan array binding signal (z-score),[16],-0.296
same,glycan array binding signal (z-score),[17],0.891
same,glycan array binding signal (z-score),[18],-0.977
same,glycan array binding signal (z-score),[19],0.854
same,glycan array binding signal (z-score),[20],0.551
same,glycan array binding signal (z-score),[21],-0.634
same,glycan array binding signal (z-score),[22],0.219
same,glycan array binding signal (z-score),[23],0.038
same,glycan array binding signal (z-score),[24],0.629
same,glycan array binding signal (z-score),[25],-0.79
same,glycan array binding signal (z-score),[26],0.195
same,glycan array binding signal (z-score),[27],0.422
same,glycan array binding signal (z-score),[28],-0.999
same,glycan array binding signal (z-score),[29],1.15
same,glycan array binding signal (z-score),[30],-0.887
same,glycan array binding signal (z-score),[31],-0.962
same,glycan array binding signal (z-score),[32],0.021
same,glycan array binding signal (z-score),[33],-0.076
same,glycan array binding signal (z-score),[34],-0.357
same,glycan array binding signal (z-score),[35],0.653
same,glycan array binding signal (z-score),[36],-0.676
same,glycan array binding signal (z-score),[37],-1.28
same,glycan array binding signal (z-score),[38],1.93
same,glycan array binding signal (z-score),[39],-1.68
same,glycan array binding signal (z-score),[40],-1.17
same,glycan array binding signal (z-score),[41],-0.159
same,glycan array binding signal (z-score),[42],-1.07
same,glycan array binding signal (z-score),[43],-1.19
same,glycan array binding signal (z-score),[44],-0.699
same,glycan array binding signal (z-score),[45],-0.767

# As a short view, part of the list above:
binder,measurement,setting,value
CM2 (Cordyceps militaris) (protein) MEIAEQNVGKSCAIVNLIPPKEGSNIWTAKQVTIARNLPPNRGTGRHQIDWSFGPVKVTGYVDTTNWEIGVTVSIMGIDLGTVYGNLRDGVVLNVDLFLAKGQVRFYLKNGNEVWVHLSVEIRFDGKFEGDYKIITV,glycan array binding signal (z-score),[14],0.36
same,glycan array binding signal (z-score),[15],0.957
same,glycan array binding signal (z-score),[16],-0.296
same,glycan array binding signal (z-score),[17],0.891

# From the supplement of paper PMC8728848
